Laboratory results published in patent US20120121656A1, “METHODS AND COMPOSITIONS FOR PROTECTING AGAINST NEUROTOXICITY OF A NEUROTOXIC AGENT, AND IMPROVING MOTOR COORDINATION ASSOCIATED WITH A NEURODEGENERATIVE CONDITION OR DISEASE” (Revalesio Corporation, priority 2010, published 2012).
For at least one compound, name, drawing or mass did not settle the structure.

Columns and labels:
[1] = tested on: MMP; conditions: sub-antibiotic levels; cited from earlier work
[2] = tested on: PI-3 kinase in human primary neurons; assay: PI-3 kinase inhibitor on RNS60 protection of fibrillar Aβ1-42-challenged neurons (TUNEL, MTT, LDH); assay type: cell-based; conditions: preincubation with 2 μm LY294002, then RNS60, then fibrillar Aβ1-42

Row | SMILES | inhibition of MMP activity [1] | effect on the protective effect of RNS60 on fibrillar Aβ-challenged neurons [2]
1 | C[C@H]1c2cccc(O)c2C(=O)C2=C(O)[C@]3(O)C(=O)C(C(N)=O)=C(O)[C@@H](N(C)C)[C@@H]3[C@@H](O)[C@@H]21 [Doxycycline] | effectively inhibit MMP activity | –
2 | O=c1cc(N2CCOCC2)oc2c(-c3ccccc3)cccc12 [LY294002] | – | abrogated the protective effect of RNS60
3 | CN(C)c1ccc(O)c2c1C[C@H]1C[C@H]3[C@H](N(C)C)C(O)=C(C(N)=O)C(=O)[C@@]3(O)C(O)=C1C2=O [Minocycline] | effectively inhibit MMP activity | –
